The target of the test is Oct4-FTAP fusion protein (mouse), P20263. Kind of test: affinity purification with mass spectrometry; one-step purification on anti-FLAG M2 Dynal beads from whole-cell extracts of Oct4-FTAP ESCs against unmodified control cells (AB2.2); 150 mM NaCl, 0.1% NP-40, 90 min, 4°C; elution with AcTEV protease; three independent purifications; LC-MS/MS. The settings on record: remark: other sources report otherwise.

Results are given in words; binding and its absence hold for the method and conditions named. Binding seen in cells or lysates may run through a third protein. Here binding means that the protein was enriched with, or labelled near, the bait; the list need not be complete. No binding means not detected with the bait.

B1: beta-catenin, Q02248 1-781 (protein)
chain: MATQADLMELDMAMEPDRKAAVSHWQQQSYLDSGIHSGATTTAPSLSGKGNPEEEDVDTSQVLYEWEQGFSQSFTQEQVADIDGQYAMTRAQRVRAAMFPETLDEGMQIPSTQFDAAHPTNVQRLAEPSQMLKHAVVNLINYQDDAELATRAIPELTKLLNDEDQVVVNKAAVMVHQLSKKEASRHAIMRSPQMVSAIVRTMQNTNDVETARCTAGTLHNLSHHREGLLAIFKSGGIPALVKMLGSPVDSVLFYAITTLHNLLLHQEGAKMAVRLAGGLQKMVALLNKTNVKFLAITTDCLQILAYGNQESKLIILASGGPQALVNIMRTYTYEKLLWTTSRVLKVLSVCSSNKPAIVEAGGMQALGLHLTDPSQRLVQNCLWTLRNLSDAATKQEGMEGLLGTLVQLLGSDDINVVTCAAGILSNLTCNNYKNKMMVCQVGGIEALVRTVLRAGDREDITEPAICALRHLTSRHQEAEMAQNAVRLHYGLPVVVKLLHPPSHWPLIKATVGLIRNLALCPANHAPLREQGAIPRLVQLLVRAHQDTQRRTSMGGTQQQFVEGVRMEEIVEGCTGALHILARDVHNRIVIRGLNTIPLFVQLLYSPIENIQRVAAGVLCELAQDKEAAEAIEAEGATAPLTELLHSRNEGVATYAAAVLFRMSEDKPQDYKKRLSVELTSSLFRTEPMAWNETADLGLDIGAQGEALGYRQDDPSYRSFHSGGYGQDALGMDPMMEHEMGGHHPGADYPVDGLPDLGHAQDLMDGLPPGDSNQLAWFDTDL
On to B1, for which the binding entry is recorded as “no binding”.
